Results are given in words; binding and its absence hold for the method and conditions named. Binding calls can cover weak binding; strength is not graded here.

In experiment [1] the target is SlTCP1 (tomato (Solanum lycopersicum)) (UniProt K4B8V2). Kind of experiment: two-hybrid; matrix of all combinations; GAL4 BD baits (pDEST32) in yeast PJ69-4α mated with GAL4 AD preys (pDEST22) in PJ69-4a; growth on SD -Leu -Trp -Ade (-LTA) and -Leu -Trp -His (-LTH) with 5, 10 or 15 mM 3-AT; plates at 20°C, scored after 5 d; in triplicate.
Experiment [2] deals with SlTCP2 (tomato (Solanum lycopersicum)) (UniProt Q9FR55). Described as above.

SlTCP19 (from UniProt A0A3Q7HYI7): the binding entry in experiment [1] and in experiment [2] was “binds” in each case.

(Values after paper PMC4070083.)
